From the supplement of paper PMC4604168 (melanoma cell lines)
This is one part of the list. Repeats are few or missing, and single values can be far off.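 The apoptosis fraction was the count of cleaved-PARP antibody-stained nuclei relative to all DNA-stained nuclei, imaged in 1,536-well plates. Screening doses were set so most cells survived, and baseline and induced cleaved-PARP levels vary greatly across cell lines.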

These compounds were tested on CBRC014 (line from a melanoma biopsy) (assay: cleaved PARP positive nuclei fraction relative to DMSO control; melanoma cells; higher = more apoptosis). Conditions: library dose: low library concentration; 72 h.
For O=c1[nH]nc(Sc2ncc([N+](=O)[O-])s2)n1-c1ccc2c(c1)OCCO2 + COc1cc2c(Oc3ccc4[nH]c(C)cc4c3F)ncnc2cc1OCCCN1CCCC1 [cediranib] (first compound 0.2 µM, partner dose 0.4 µM), the “cleaved PARP positive nuclei fraction” value was 96.5%.
With Cc1cc(Nc2cc(N3CCN(C)CC3)nc(Sc3ccc(NC(=O)C4CC4)cc3)n2)n[nH]1 [Tozasertib] + NC(=O)Nc1cc(-c2cccc(F)c2)sc1C(=O)N[C@H]1CCCNC1 [AZD7762] (first compound 0.006 µM, partner dose 0.02 µM) the “cleaved PARP positive nuclei fraction” value was 86%.
With Cc1cn(-c2cc(NC(=O)c3ccc(C)c(Nc4nccc(-c5cccnc5)n4)c3)cc(C(F)(F)F)c2)cn1 [nilotinib] + O=C(Nc1cccc(Cl)c1)Nc1ncc(CCNc2ncnc3ccsc23)s1 [SNS314] (first compound 0.2 µM, partner dose 0.0008 µM) the “cleaved PARP positive nuclei fraction” value was 133%.
In the case of CCCCCCCCCCCCCCCCCCOP(=O)([O-])OC1CC[N+](C)(C)CC1 [Perifosine] + CC(C)(C)c1cnc(CSc2cnc(NC(=O)C3CCNCC3)s2)o1 [SNS-032] (first compound 0.4 µM, partner dose 0.01 µM), the “cleaved PARP positive nuclei fraction” value is reported as 175%.
For O=C(Nc1cc(C(F)(F)F)cc(C(F)(F)F)c1)c1cc(Cl)ccc1O + NCC(=O)Nc1ccc(-n2nc(C(F)(F)F)cc2-c2ccc3c(ccc4ccccc43)c2)cc1 [OSU03012] (first compound 0.016 µM, partner dose 1 µM), the “cleaved PARP positive nuclei fraction” value was 80.9%.
In the case of CCCCCCCCCCCCCCCCCCOP(=O)([O-])OC1CC[N+](C)(C)CC1 [Perifosine] + O=C(O)c1ccc(-c2c[nH]c3ncc(-c4ccccc4)cc23)cc1C1CCCC1 [GSK650394] (first compound 0.4 µM, partner dose 0.16 µM), the “cleaved PARP positive nuclei fraction” value is reported as 90.4%.
For O=C(Nc1cc(C(F)(F)F)cc(C(F)(F)F)c1)c1cc(Cl)ccc1O + C[C@@H]1CCN(C(=O)CC#N)C[C@@H]1N(C)c1ncnc2[nH]ccc12 [CP690550] (first compound 0.016 µM, partner dose 1 µM), the “cleaved PARP positive nuclei fraction” value was 97.5%.
CC[C@]1(O)C[C@H]2CN(CCc3c([nH]c4ccccc34)[C@@](C(=O)OC)(c3cc4c(cc3OC)N(C=O)[C@H]3[C@@](O)(C(=O)OC)[C@H](OC(C)=O)[C@]5(CC)C=CCN6CC[C@]43[C@@H]65)C2)C1 [vincristine] + CO[C@@H]1[C@H](N(C)C(=O)c2ccccc2)C[C@H]2O[C@]1(C)n1c3ccccc3c3c4c(c5c6ccccc6n2c5c31)C(=O)NC4 [Midostaurin] (first compound 0.0001 µM, partner dose 0.08 µM) was tested, and the “cleaved PARP positive nuclei fraction” value was 87.6%.
In the case of COc1cc([C@@H]2c3cc4c(cc3[C@@H](O[C@@H]3O[C@@H]5CO[C@@H](C)O[C@H]5[C@H](O)[C@H]3O)[C@H]3COC(=O)[C@H]23)OCO4)cc(OC)c1O [etoposide] + OCCn1cc(-c2cnc3nnn(Cc4ccc5ncccc5c4)c3n2)cn1 [PF04217903] (first compound 0.02 µM, partner dose 1 µM), the “cleaved PARP positive nuclei fraction” value is reported as 93.3%.
For CCCCCCCCCCCCCCCCCCOP(=O)([O-])OC1CC[N+](C)(C)CC1 [Perifosine] + C[C@@H]1CCN(C(=O)CC#N)C[C@@H]1N(C)c1ncnc2[nH]ccc12 [CP690550] (first compound 0.4 µM, partner dose 1 µM), the “cleaved PARP positive nuclei fraction” value was 88.1%.
In the case of O=C(/C=C/c1cccnc1)NCCCCC1CCN(C(=O)c2ccccc2)CC1 + Cc1ccc(NC(=O)c2cccc(N(C)C)c2)cc1NC(=O)c1ccc(O)cc1 [ZM336372] (first compound 0.01 µM, partner dose 2 µM), the “cleaved PARP positive nuclei fraction” value is reported as 116%.
For Cc1ccc(Nc2nccc(N(C)c3ccc4c(C)n(C)nc4c3)n2)cc1S(N)(=O)=O [Pazopanib] + COc1cc(Nc2ncc(F)c(Nc3ccc4c(n3)NC(=O)C(C)(C)O4)n2)cc(OC)c1OC [Tamatinib] (first compound 0.4 µM, partner dose 0.4 µM), the “cleaved PARP positive nuclei fraction” value was 96.6%.
With N#CC[C@H](C1CCCC1)n1cc(-c2ncnc3[nH]ccc23)cn1 [ruxolitinib] + COc1cc(Nc2ncc(F)c(Nc3ccc4c(n3)NC(=O)C(C)(C)O4)n2)cc(OC)c1OC [Tamatinib] (first compound 1 µM, partner dose 0.4 µM) the “cleaved PARP positive nuclei fraction” value was 65.2%.
In the case of COc1cc([C@@H]2c3cc4c(cc3[C@@H](O[C@@H]3O[C@@H]5CO[C@@H](C)O[C@H]5[C@H](O)[C@H]3O)[C@H]3COC(=O)[C@H]23)OCO4)cc(OC)c1O [etoposide] + CN(NC(=O)CC(=O)NN(C)C(=S)c1ccccc1)C(=S)c1ccccc1 [STA4783] (first compound 0.02 µM, partner dose 0.006 µM), the “cleaved PARP positive nuclei fraction” value is reported as 619%.
O=C(Nc1cc(C(F)(F)F)cc(C(F)(F)F)c1)c1cc(Cl)ccc1O + O=C(Nc1cccc(Cl)c1)Nc1ncc(CCNc2ncnc3ccsc23)s1 [SNS314] (first compound 0.016 µM, partner dose 0.0008 µM) was tested, and the “cleaved PARP positive nuclei fraction” value was 80.7%.
Cc1cn(-c2cc(NC(=O)c3ccc(C)c(Nc4nccc(-c5cccnc5)n4)c3)cc(C(F)(F)F)c2)cn1 [nilotinib] + NC(=O)Nc1cc(-c2cccc(F)c2)sc1C(=O)N[C@H]1CCCNC1 [AZD7762] (first compound 0.2 µM, partner dose 0.02 µM) was tested, and the “cleaved PARP positive nuclei fraction” value was 74.7%.
In the case of Cc1cn(-c2cc(NC(=O)c3ccc(C)c(Nc4nccc(-c5cccnc5)n4)c3)cc(C(F)(F)F)c2)cn1 [nilotinib] + O=C(O)c1ccc(-c2c[nH]c3ncc(-c4ccccc4)cc23)cc1C1CCCC1 [GSK650394] (first compound 0.2 µM, partner dose 0.16 µM), the “cleaved PARP positive nuclei fraction” value is reported as 85.9%.
With O=C(/C=C/c1cccnc1)NCCCCC1CCN(C(=O)c2ccccc2)CC1 + CC(C)(C)c1cnc(CSc2cnc(NC(=O)C3CCNCC3)s2)o1 [SNS-032] (first compound 0.01 µM, partner dose 0.01 µM) the “cleaved PARP positive nuclei fraction” value was 111%.
With Cc1cn(-c2cc(NC(=O)c3ccc(C)c(Nc4nccc(-c5cccnc5)n4)c3)cc(C(F)(F)F)c2)cn1 [nilotinib] + O=C(CCCCCCC(=O)Nc1ccccc1)NO [vorinostat] (first compound 0.2 µM, partner dose 0.08 µM) the “cleaved PARP positive nuclei fraction” value was 93.7%.
With N#CC[C@H](C1CCCC1)n1cc(-c2ncnc3[nH]ccc23)cn1 [ruxolitinib] + O=C(O)c1ccc(-c2c[nH]c3ncc(-c4ccccc4)cc23)cc1C1CCCC1 [GSK650394] (first compound 1 µM, partner dose 0.16 µM) the “cleaved PARP positive nuclei fraction” value was 104%.
With O=C(Nc1cc(C(F)(F)F)cc(C(F)(F)F)c1)c1cc(Cl)ccc1O + CO[C@@H]1[C@H](N(C)C(=O)c2ccccc2)C[C@H]2O[C@]1(C)n1c3ccccc3c3c4c(c5c6ccccc6n2c5c31)C(=O)NC4 [Midostaurin] (first compound 0.016 µM, partner dose 0.08 µM) the “cleaved PARP positive nuclei fraction” value was 106%.
For N#CC[C@H](C1CCCC1)n1cc(-c2ncnc3[nH]ccc23)cn1 [ruxolitinib] + Cc1ccc(NC(=O)c2cccc(N(C)C)c2)cc1NC(=O)c1ccc(O)cc1 [ZM336372] (first compound 1 µM, partner dose 2 µM), the “cleaved PARP positive nuclei fraction” value was 117%.
For N#CC[C@H](C1CCCC1)n1cc(-c2ncnc3[nH]ccc23)cn1 [ruxolitinib] + CC1(C)NC(=O)N(c2ccc([N+](=O)[O-])c(C(F)(F)F)c2)C1=O [nilutamide] (first compound 1 µM, partner dose 1 µM), the “cleaved PARP positive nuclei fraction” value was 95%.
For CC[C@]1(O)C[C@H]2CN(CCc3c([nH]c4ccccc34)[C@@](C(=O)OC)(c3cc4c(cc3OC)N(C=O)[C@H]3[C@@](O)(C(=O)OC)[C@H](OC(C)=O)[C@]5(CC)C=CCN6CC[C@]43[C@@H]65)C2)C1 [vincristine] + O=C(Nc1cccc(Cl)c1)Nc1ncc(CCNc2ncnc3ccsc23)s1 [SNS314] (first compound 0.0001 µM, partner dose 0.0008 µM), the “cleaved PARP positive nuclei fraction” value was 91%.
In the case of Cc1cn(-c2cc(NC(=O)c3ccc(C)c(Nc4nccc(-c5cccnc5)n4)c3)cc(C(F)(F)F)c2)cn1 [nilotinib] + CC(C)(C)c1cnc(CSc2cnc(NC(=O)C3CCNCC3)s2)o1 [SNS-032] (first compound 0.2 µM, partner dose 0.01 µM), the “cleaved PARP positive nuclei fraction” value is reported as 80.1%.
For COc1cc([C@@H]2c3cc4c(cc3[C@@H](O[C@@H]3O[C@@H]5CO[C@@H](C)O[C@H]5[C@H](O)[C@H]3O)[C@H]3COC(=O)[C@H]23)OCO4)cc(OC)c1O [etoposide] + NC(=O)Nc1cc(-c2cccc(F)c2)sc1C(=O)N[C@H]1CCCNC1 [AZD7762] (first compound 0.02 µM, partner dose 0.02 µM), the “cleaved PARP positive nuclei fraction” value was 89.5%.
In the case of Cc1cc(Nc2cc(N3CCN(C)CC3)nc(Sc3ccc(NC(=O)C4CC4)cc3)n2)n[nH]1 [Tozasertib] + Cn1cncc1[C@@](N)(c1ccc(Cl)cc1)c1ccc2c(c1)c(-c1cccc(Cl)c1)cc(=O)n2C [tipifarnib] (first compound 0.006 µM, partner dose 0.01 µM), the “cleaved PARP positive nuclei fraction” value is reported as 81.2%.
In the case of Cc1ccc(Nc2nccc(N(C)c3ccc4c(C)n(C)nc4c3)n2)cc1S(N)(=O)=O [Pazopanib] + Cn1cncc1[C@@](N)(c1ccc(Cl)cc1)c1ccc2c(c1)c(-c1cccc(Cl)c1)cc(=O)n2C [tipifarnib] (first compound 0.4 µM, partner dose 0.01 µM), the “cleaved PARP positive nuclei fraction” value is reported as 96%.
